Results are given in words; binding and its absence hold for the method and conditions named. In cells and extracts the contact can be indirect. Some entries that bind do so weakly or less than the wild type.

Amino acid sequences for entries named in this document (tags omitted).
UniProt P03372: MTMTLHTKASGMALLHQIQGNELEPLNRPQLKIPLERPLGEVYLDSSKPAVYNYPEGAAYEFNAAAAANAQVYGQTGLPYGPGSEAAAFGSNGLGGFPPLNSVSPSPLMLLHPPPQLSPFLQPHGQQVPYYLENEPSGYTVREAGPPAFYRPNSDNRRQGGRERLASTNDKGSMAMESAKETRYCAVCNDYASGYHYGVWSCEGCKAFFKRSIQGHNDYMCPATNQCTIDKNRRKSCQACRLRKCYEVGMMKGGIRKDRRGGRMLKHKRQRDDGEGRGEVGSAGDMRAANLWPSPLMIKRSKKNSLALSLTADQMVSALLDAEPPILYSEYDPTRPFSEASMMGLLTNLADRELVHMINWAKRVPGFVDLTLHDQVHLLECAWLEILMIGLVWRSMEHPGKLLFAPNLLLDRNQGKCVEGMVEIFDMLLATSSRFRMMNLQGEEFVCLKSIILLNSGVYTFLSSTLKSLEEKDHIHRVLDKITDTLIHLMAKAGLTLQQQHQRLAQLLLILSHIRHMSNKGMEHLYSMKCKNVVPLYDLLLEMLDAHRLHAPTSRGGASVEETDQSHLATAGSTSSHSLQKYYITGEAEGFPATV
UniProt Q9BYM8: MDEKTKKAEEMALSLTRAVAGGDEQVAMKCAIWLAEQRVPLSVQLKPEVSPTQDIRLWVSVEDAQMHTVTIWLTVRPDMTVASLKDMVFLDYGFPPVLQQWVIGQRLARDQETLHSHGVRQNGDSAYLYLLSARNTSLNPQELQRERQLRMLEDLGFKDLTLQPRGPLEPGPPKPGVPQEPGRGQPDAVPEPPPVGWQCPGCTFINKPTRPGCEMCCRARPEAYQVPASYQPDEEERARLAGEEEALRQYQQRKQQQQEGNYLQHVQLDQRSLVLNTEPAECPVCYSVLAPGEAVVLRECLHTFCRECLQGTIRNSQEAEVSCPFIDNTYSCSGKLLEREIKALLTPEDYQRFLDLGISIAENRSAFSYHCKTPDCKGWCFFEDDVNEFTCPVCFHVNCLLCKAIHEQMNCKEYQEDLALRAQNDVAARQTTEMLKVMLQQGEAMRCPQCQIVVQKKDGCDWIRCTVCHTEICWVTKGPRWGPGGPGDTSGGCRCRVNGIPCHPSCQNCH

The text below walks through data of publication PMC8173209.

Assay [1] addresses HA-ERα full length (UniProt P03372). As to the kind of experiment: co-IP; HEK293 cells transfected with HA-ERα and Flag-HOIL-1 full length or deletion mutants; NP-40 lysis buffer after 24 h; IP with HA antibody, detection with Flag antibody.
Assay [2] has as its target Flag-HOIL-1 full length (UniProt Q9BYM8). As to the kind of experiment: co-IP; HEK293 cells transfected with Flag-HOIL-1 and HA-ERα full length or deletion mutants; NP-40 lysis buffer after 24 h; IP with Flag antibody, detection with HA antibody.
Assay [3] has as its target Estrogen receptor α (ERα), endogenous (human (endogenous in MCF-7)) (UniProt P03372). As to the kind of experiment: co-IP; endogenous proteins, MCF-7 cells harvested with RIPA lysis buffer; lysate pre-cleared with rabbit IgG, immunoprecipitated with ERα antibody (D8H8) overnight, blotted with anti-HOIL-1; rabbit IgG as negative control.

“Flag-HOIL-1 full length (from UniProt Q9BYM8 1-510)”: in assay [1], the binding result is “binds”.

As for “HA-ERα full length (from UniProt P03372 1-595)”, in assay [2], the binding result is “binds”.

As to “HOIL-1 (Haem-oxidized IRP2 Ubiquitin Ligase-1), endogenous (from UniProt Q9BYM8 1-510)”, the binding entry in assay [3] is listed as “binds”.
